PubChem BioAssay AID1224829 | NIAID, 2016

Assay: 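Genes needed for LPS-driven NF-kappaB p65 nuclear entry in mouse macrophages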 (follow-up of hits)
System: mouse RAW264.7 G9 macrophage reporter cells
Reagent: single siRNA against mouse genes, 100 nM
Timing: 2 days of siRNA knock-down, then 40 min of LPS before fixing
Challenge: LPS (Salmonella minnesota R595) at 10 ng/ml
Measured: 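Imaging of GFP-p65 after 40 min of LPS; nuclear over perinuclear ring intensity ratio, scaled to plate median and non-targeting control wells, given as z-score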
Scale: p65 translocation z-score: higher = more nuclear NF-kappaB p65 after LPS
Call rule: 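An siRNA is called active when the mean z-score of its two replicates is above 2 or below -2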
Calls: active = changed p65 translocation (either direction); inactive = no clear change
This is one part, drawn at random, of about 3,800 reagents. 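Calls cover raised and lowered translocation; gene median uses one vendor's three siRNAs; qiagen siRNAs acted more weakly than ambion siRNAs.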 Reagents against one gene are numbered here. Further read-outs or replicates are left out here.

gene | reagent | siRNA vendor or control pool | p65 translocation z-score, replicate mean | Call
Pold3 (GeneID 67967) | 1 | ambion single siRNA | -2 | active
Pold3 (GeneID 67967) | 2 | ambion single siRNA | -4.05 | active
Pold3 (GeneID 67967) | 3 | ambion single siRNA | -5.34 | active
Pold3 (GeneID 67967) | 4 | qiagen single siRNA | 0.74 | inactive
Pold3 (GeneID 67967) | 5 | qiagen single siRNA | 2.99 | active
Pold3 (GeneID 67967) | 6 | qiagen single siRNA | 0.331 | inactive
Spag1 (GeneID 26942) | 1 | ambion single siRNA | -2.57 | active
Spag1 (GeneID 26942) | 2 | ambion single siRNA | -7.15 | active
Spag1 (GeneID 26942) | 3 | ambion single siRNA | -3.9 | active
Spag1 (GeneID 26942) | 4 | qiagen single siRNA | -0.835 | inactive
Spag1 (GeneID 26942) | 5 | qiagen single siRNA | -2.55 | active
Spag1 (GeneID 26942) | 6 | qiagen single siRNA | -6.77 | active
Mrpl51 (GeneID 66493) | 1 | ambion single siRNA | 0.228 | inactive
Mrpl51 (GeneID 66493) | 2 | ambion single siRNA | -0.0428 | inactive
Mrpl51 (GeneID 66493) | 3 | ambion single siRNA | -1.43 | inactive
Mrpl51 (GeneID 66493) | 4 | qiagen single siRNA | 1.04 | inactive
Mrpl51 (GeneID 66493) | 5 | qiagen single siRNA | -0.273 | inactive
Mrpl51 (GeneID 66493) | 6 | qiagen single siRNA | 3.41 | active
Ap1g2 (GeneID 11766) | 1 | ambion single siRNA | -1.83 | inactive
Ap1g2 (GeneID 11766) | 2 | ambion single siRNA | -3.22 | active
Ap1g2 (GeneID 11766) | 3 | ambion single siRNA | -4.61 | active
Ap1g2 (GeneID 11766) | 4 | qiagen single siRNA | 0.636 | inactive
Ap1g2 (GeneID 11766) | 5 | qiagen single siRNA | -2.88 | active
Ap1g2 (GeneID 11766) | 6 | qiagen single siRNA | -1.95 | inactive
Syk (GeneID 20963) | 1 | ambion single siRNA | -2.04 | active
Syk (GeneID 20963) | 2 | ambion single siRNA | -2.46 | active
Syk (GeneID 20963) | 3 | ambion single siRNA | -5.48 | active
Syk (GeneID 20963) | 4 | qiagen single siRNA | -1.4 | inactive
Syk (GeneID 20963) | 5 | qiagen single siRNA | 1.46 | inactive
Syk (GeneID 20963) | 6 | qiagen single siRNA | -1.16 | inactive
Gspt1 (GeneID 14852) | 1 | ambion single siRNA | -0.234 | inactive
Gspt1 (GeneID 14852) | 2 | ambion single siRNA | -1.53 | inactive
Gspt1 (GeneID 14852) | 3 | ambion single siRNA | 0.546 | inactive
Gspt1 (GeneID 14852) | 4 | qiagen single siRNA | -3.24 | active
Gspt1 (GeneID 14852) | 5 | qiagen single siRNA | -1.93 | inactive
Gspt1 (GeneID 14852) | 6 | qiagen single siRNA | -0.99 | inactive
Vps35 (GeneID 65114) | 1 | ambion single siRNA | 2.01 | active
Vps35 (GeneID 65114) | 2 | ambion single siRNA | -0.45 | inactive
Vps35 (GeneID 65114) | 3 | ambion single siRNA | -1.35 | inactive
Vps35 (GeneID 65114) | 4 | qiagen single siRNA | 1.2 | inactive
Vps35 (GeneID 65114) | 5 | qiagen single siRNA | -2.13 | active
Vps35 (GeneID 65114) | 6 | qiagen single siRNA | -0.445 | inactive
Inppl1 (GeneID 16332) | 1 | ambion single siRNA | 0.966 | inactive
Inppl1 (GeneID 16332) | 2 | ambion single siRNA | 0.648 | inactive
Inppl1 (GeneID 16332) | 3 | ambion single siRNA | -3.32 | active
Inppl1 (GeneID 16332) | 4 | qiagen single siRNA | 3.89 | active
Inppl1 (GeneID 16332) | 5 | qiagen single siRNA | 0.461 | inactive
Inppl1 (GeneID 16332) | 6 | qiagen single siRNA | 0.108 | inactive
Rit2 (GeneID 19762) | 1 | ambion single siRNA | 0.725 | inactive
Rit2 (GeneID 19762) | 2 | ambion single siRNA | 0.523 | inactive
Rit2 (GeneID 19762) | 3 | ambion single siRNA | -2.47 | active
Rit2 (GeneID 19762) | 4 | qiagen single siRNA | 1.56 | inactive
Rit2 (GeneID 19762) | 5 | qiagen single siRNA | -0.521 | inactive
Rit2 (GeneID 19762) | 6 | qiagen single siRNA | -0.593 | inactive

In a second layout: entries from further up
| gene | reagent | siRNA vendor or control pool | p65 translocation z-score, replicate mean | Call |
| --- | --- | --- | --- | --- |
| Syk (GeneID 20963) | 2 | ambion single siRNA | -2.46 | active |
| Syk (GeneID 20963) | 3 | ambion single siRNA | -5.48 | active |
| Syk (GeneID 20963) | 4 | qiagen single siRNA | -1.4 | inactive |
| Syk (GeneID 20963) | 5 | qiagen single siRNA | 1.46 | inactive |
| Syk (GeneID 20963) | 6 | qiagen single siRNA | -1.16 | inactive |
| Gspt1 (GeneID 14852) | 1 | ambion single siRNA | -0.234 | inactive |
| Gspt1 (GeneID 14852) | 2 | ambion single siRNA | -1.53 | inactive |
| Gspt1 (GeneID 14852) | 3 | ambion single siRNA | 0.546 | inactive |
